Article PMC9988210
No constants are given. Whether binding was seen depends on the method and setting. Binding seen in cells or lysates may run through a third protein.

Target: PSKH2 with the C-terminal tail deleted, C-terminal MYC epitope (human)
Assay: co-IP; C-terminal MYC-tagged PSKH2 or variants precipitated from HEK-293T lysate with anti-c-Myc agarose (lysis buffer with 1% DDM), immunoblot of endogenous partners

| Binder | binding |
| --- | --- |
| Cdc37 (protein, UniProt Q16543 1-378) MVDYSVWDHIEVSDDEDETHPNIDTASLFRWRHQARVERMEQFQKEKEELDRGCRECKRKVAECQRKLKELEVAEGGKAELERLQAEAQQLRKEERSWEQKLEEMRKKEKSMPWNVDTLSKDGFSKSMVNTKPEKTEEDSEEVREQKHKTFVEKYEKQIKHFGMLRRWDDSQKYLSDNVHLVCEETANYLVIWCIDLEVEEKCALMEQVAHQTIVMQFILELAKSLKVDPRACFRQFFTKIKTADRQYMEGFNDELEAFKERVRGRAKLRIEKAMKEYEEEERKKRLGPGGLDPVEVYESLPEELQKCFDVKDVQMLQDAISKMDPTDAKYHMQRCIDSGLWVPNSKASEAKEGEEAGPGDPLLEAVPKTGDEKDVSV | no binding |
| FKBP5 (protein, UniProt Q13451 1-457) MTTDEGAKNNEESPTATVAEQGEDITSKKDRGVLKIVKRVGNGEETPMIGDKVYVHYKGKLSNGKKFDSSHDRNEPFVFSLGKGQVIKAWDIGVATMKKGEICHLLCKPEYAYGSAGSLPKIPSNATLFFEIELLDFKGEDLFEDGGIIRRTKRKGEGYSNPNEGATVEIHLEGRCGGRMFDCRDVAFTVGEGEDHDIPIGIDKALEKMQREEQCILYLGPRYGFGEAGKPKFGIEPNAELIYEVTLKSFEKAKESWEMDTKEKLEQAAIVKEKGTVYFKGGKYMQAVIQYGKIVSWLEMEYGLSEKESKASESFLLAAFLNLAMCYLKLREYTKAVECCDKALGLDSANEKGLYRRGEAQLLMNEFESAKGDFEKVLEVNPQNKAARLQISMCQKKAKEHNERDRRIYANMFKKFAEQDAKEEANKAMGKKTSEGVTNEKGTDSQAMEEEKPEGHV | no binding |
